# Reference: PubChem BioAssay AID330 (DTP/NCI, 2004)
# The list shows only some results of the screen, not a fair sample: it gathers tests that were run many times, whatever their T/C, doses with no T/C, and many T/C values between a quarter and a half above the control. Other doses and runs of a compound stand elsewhere. T/C is the treated group as % of the vehicle group. Some entries give survivors of the animals treated and no T/C: the source files T/C as zero there, which appears to mark a toxic dose or a test without result, not a measured value. Some survivor counts are full or nearly so, which does not show that the dose was tolerated: survival well below the control is almost never listed, so the zero probably covers shortened survival too. Survivors were counted at the toxicity check, usually on the fifth day, unless a day is given; later deaths do not show. Schedules are NCI's codes, read here as Q, the interval in days (D) or hours (H), X, the number of doses. Some structures stand for samples that the source files as different forms (salt, stereo form or complex); doses refer to the form tested. For survival time, this PubChem deposit counts one and a half times the control or more as active, and values a quarter to a half above the control carry no call in these data; other NCI protocols may use other cut-offs. Some T/C values are followed by the survivors on the day toxicity was checked, most often the fifth; without a count, all were alive then. Some entries hold several experiments; their values stand side by side, smallest first. Marks such as (2×) say how often a value occurs here.
# Test system: P388 leukemia ip, CD2F1 mice, survival T/C
# Assay: NCI In Vivo Anticancer Drug Screen. Data for tumor model P388 Leukemia (intraperitoneal) in CD2F1 (CDF1) mice
# Conditions: T/C endpoint: median survival time, higher T/C = longer survival
# [1] = dose: 120.0 mg/kg/injection, schedule: Q01DX005 (ip), vehicle: saline with Tween-80
# [2] = dose: 200.0 mg/kg/injection, schedule: Q01DX009 (ip), vehicle: Klucel (hydroxypropylcellulose) (HPC)
# [3] = dose: 50.0 mg/kg/injection, schedule: Q01DX005 (ip), vehicle: saline
# [4] = dose: 240.0 mg/kg/injection, schedule: Q01DX005 (ip), vehicle: saline with Tween-80
# [5] = dose: 100.0 mg/kg/injection, schedule: Q01DX005 (ip), vehicle: saline with Tween-80
compound,measurement,setting,value
C=C1C(=O)O[C@H]2C3OC3(C)CC/C=C(/C(=O)OC)[C@@H](OC(C)=O)[C@H](OC(=O)C3(C)OC3C)[C@H]12 (stereo not given in full),survivor count,"dose: 15.0 mg/kg/injection, schedule: Q01DX009 (ip), vehicle: Klucel (hydroxypropylcellulose) (HPC)",1 of 6
same,survivor count,"dose: 30.0 mg/kg/injection, schedule: Q01DX009 (ip), vehicle: Klucel (hydroxypropylcellulose) (HPC)",0 of 6
same,survivor count,"dose: 60.0 mg/kg/injection, schedule: Q01DX009 (ip), vehicle: Klucel (hydroxypropylcellulose) (HPC)",0 of 6
same,survivor count,"dose: 120.0 mg/kg/injection, schedule: Q01DX009 (ip), vehicle: Klucel (hydroxypropylcellulose) (HPC)",0 of 6
Cc1ccc(S(=O)(=O)NC(=O)NC(C)Cc2ccccc2)cc1 (stereo not given),survivor count,"dose: 100.0 mg/kg/injection, schedule: Q01DX009 (ip), vehicle: saline with Tween-80",6 of 6
CCOC(=O)C1=C(C(=O)c2ccc(OC)cc2)C(c2c(Cl)cccc2Cl)C(C(=O)c2ccc(OC)cc2)=C(C(=O)OCC)N1,survivor count,[1],5 of 6
CCCN(CCC)/N=C/c1c2c(O)c3c(O)c(C)c4c(c3c1O)C(=O)C(C)(O/C=C/C(OC)C(C)C(OC(C)=O)C(C)C(O)C(C)C(O)C(C)/C=C/C=C(C)C(=O)N2)O4 (stereo not given),survivor count,"dose: 240.0 mg/kg/injection, schedule: Q01DX005 (ip), vehicle: Klucel (hydroxypropylcellulose) (HPC)",4 of 6
O=C(O)c1ccc(OCc2ccccc2)cc1,survivor count,"dose: 200.0 mg/kg/injection, schedule: Q01DX009 (ip), vehicle: saline",6 of 6
c1ccc2cc3c(cc2c1)Cn1c-3nc2ccccc21,survivor count,"dose: 100.0 mg/kg/injection, schedule: Q04DX003 (ip), vehicle: saline with Tween-80",4 of 6
COc1ccc(CC[n+]2cccc(C(=O)c3ccccc3)c2)cc1OC,survivor count,"dose: 100.0 mg/kg/injection, schedule: Q04DX002 (ip), vehicle: saline",6 of 6
same,survivor count,"dose: 200.0 mg/kg/injection, schedule: Q04DX002 (ip), vehicle: saline",0 of 6
same,survivor count,"dose: 400.0 mg/kg/injection, schedule: Q04DX002 (ip), vehicle: saline",0 of 6
CC(C)NCC(O)CC(c1ccccc1)c1ccccc1 (stereo not given),survivor count,"dose: 200.0 mg/kg/injection, schedule: Q01DX009 (ip), vehicle: saline with Tween-80",0 of 6
COc1ccc(/C=N\NC(=O)C(=O)N/N=C\c2ccc(OC)c(OC)c2)cc1OC,survivor count,"dose: 100.0 mg/kg/injection, schedule: Q01DX009 (ip), vehicle: Klucel (hydroxypropylcellulose) (HPC)",6 of 6
same,survivor count,[2],6 of 6
COC1C(O)C(C)OC(OC2C(Oc3cccc4c(O)c5c(=O)oc6ccc(C)c7c(=O)oc(c34)c5c67)OC(C)C(O)C2O)C1O (stereo not given),T/C,"dose: 1.0 mg/kg/injection, schedule: Q01DX009 (ip), vehicle: saline with Tween-80",139 % of control
same,T/C,"dose: 2.0 mg/kg/injection, schedule: Q01DX009 (ip), vehicle: saline with Tween-80",148 % of control
S=C1NCC[Se]1,survivor count,"dose: 25.0 mg/kg/injection, schedule: Q01DX009 (ip), vehicle: DMSO",5 of 6
same,survivor count,"dose: 50.0 mg/kg/injection, schedule: Q01DX009 (ip), vehicle: DMSO",2 of 6
same,survivor count,"dose: 100.0 mg/kg/injection, schedule: Q01DX009 (ip), vehicle: DMSO",0 of 6
same,survivor count,"dose: 200.0 mg/kg/injection, schedule: Q01DX009 (ip), vehicle: DMSO",0 of 6
C/C=N/NCCC#N,survivor count,[3],0 of 6
same,survivor count,"dose: 100.0 mg/kg/injection, schedule: Q01DX005 (ip), vehicle: saline",0 of 6
same,survivor count,"dose: 200.0 mg/kg/injection, schedule: Q01DX005 (ip), vehicle: saline",0 of 6
N#Cc1nc(CC(=O)c2ccccn2)c(CC(=O)c2ccccn2)nc1C#N,survivor count,[4],0 of 6
CCCCCCCCCCN(CCCCCCCCCC)CC(O)c1ccc2nc3c(cc2c1)CCCC3 (stereo not given),survivor count,[5],0 of 5
same,survivor count,"dose: 200.0 mg/kg/injection, schedule: Q01DX005 (ip), vehicle: saline with Tween-80",0 of 5
COc1cc(O)c(O)cc1C(C)(C)C,survivor count,"dose: 180.0 mg/kg/injection, schedule: Q01DX005 (ip), vehicle: saline with Tween-80",6 of 6
COC(=O)C1=CC(=O)N2C(=Nc3cccc4cccc2c34)S1,survivor count,"dose: 50.0 mg/kg/injection, schedule: Q01DX005 (ip), vehicle: saline with Tween-80",5 of 5
CCN(CC)CCNc1ccc(CO)c2sc3ccccc3c(=O)c12,T/C,"dose: 6.25 mg/kg/injection, schedule: Q01DX005 (ip), vehicle: water","97, 100, 103 % of control (2×)"
same,T/C,"dose: 12.5 mg/kg/injection, schedule: Q01DX005 (ip), vehicle: water","96, 102 [5 of 6 alive], 109, 113 % of control"
same,T/C,"dose: 25.0 mg/kg/injection, schedule: Q01DX005 (ip), vehicle: water","96, 113, 115, 116 % of control"
same,T/C,"dose: 40.0 mg/kg/injection, schedule: Q01DX005 (ip), vehicle: water",128 % of control
same,T/C,"dose: 40.0 mg/kg/injection, schedule: Q01DX009 (ip), vehicle: water",148 % of control
same,T/C,"dose: 48.0 mg/kg/injection, schedule: Q01DX005 (ip), vehicle: water",130 % of control
same,T/C,[3],125 % of control
same,T/C,"dose: 50.0 mg/kg/injection, schedule: Q01DX005 (ip), vehicle: water","99, 138, 154, 158 % of control"
same,survivor count,"dose: 80.0 mg/kg/injection, schedule: Q01DX009 (ip), vehicle: water",6 of 6
same,T/C,"dose: 100.0 mg/kg/injection, schedule: Q01DX005 (ip), vehicle: water","94 [4 of 5 alive], 104, 157, 163 % of control"
same,T/C,"dose: 132.0 mg/kg/injection, schedule: Q04DX003 (ip), vehicle: saline sonified",131 % of control
same,survivor count,"dose: 160.0 mg/kg/injection, schedule: Q01DX005 (ip), vehicle: water",6 of 6
same,T/C,"dose: 200.0 mg/kg/injection, schedule: Q04DX003 (ip), vehicle: saline with Tween-80",127 % of control
same,T/C,"dose: 300.0 mg/kg/injection, schedule: Q04DX003 (ip), vehicle: saline sonified",140 % of control
O=[N+]([O-])c1cccc2c[n+](Cc3ccc(Br)cc3)ccc12,survivor count,"dose: 50.0 mg/kg/injection, schedule: Q01DX009 (ip), vehicle: saline",1 of 6
CN1c2ccccc2S(=O)(=O)n2c(COc3ccccc3)nnc21,survivor count,[5],6 of 6
CN(C)C1CC(C)(O)Cc2cc3c(c(O)c21)C(=O)c1c(O)cc2c(c1C3=O)OC1OC2(C)C(O)C(N(C)C)C1O (stereo not given),T/C,"dose: 12.5 mg/kg/injection, schedule: Q01DX009 (ip), vehicle: other",132 % of control
same,T/C,"dose: 25.0 mg/kg/injection, schedule: Q01DX009 (ip), vehicle: other",141 % of control
CCn1c(=O)c(C#N)c2n(CC)c3ccccc3n2c1=O,survivor count,"dose: 60.0 mg/kg/injection, schedule: Q01DX005 (ip), vehicle: saline with Tween-80",6 of 6
same,survivor count,[1],6 of 6
same,survivor count,[4],6 of 6
CCCCCCSc1nc2ccc(NC(C)=O)cc2s1,survivor count,[2],6 of 6
CCn1c2ccccc2c2cc(/C=N/Nc3cc(C)nc4cc5c(cc34)OCO5)ccc21,survivor count,"dose: 200.0 mg/kg/injection, schedule: Q01DX005 (ip), vehicle: Klucel (hydroxypropylcellulose) (HPC)",6 of 6
COc1cccc2c1C(=O)c1c(O)c3c(c(O)c1C2=O)CC(O)(/C(C)=N/NC(=O)CCCCCCC(=O)N/N=C(\C)C1(O)Cc2c(O)c4c(c(O)c2C(OC2CC(N)C(O)C(C)O2)C1)C(=O)c1c(OC)cccc1C4=O)CC3OC1CC(N)C(O)C(C)O1 (stereo not given),survivor count,"dose: 32.0 mg/kg/injection, schedule: Q01DX009 (ip), vehicle: water",3 of 3
Cc1sc2ccccc2c(=O)c1CCl,survivor count,[4],4 of 6
Cn1c2ccccc2c2nnc(N/N=C/c3cccs3)nc21,survivor count,"dose: 100.0 mg/kg/injection, schedule: Q04DX002 (ip), vehicle: saline with Tween-80",6 of 6
same,survivor count,"dose: 200.0 mg/kg/injection, schedule: Q04DX002 (ip), vehicle: saline with Tween-80",6 of 6
O=NNc1ccc(Sc2ccc(NN=O)cn2)nc1,T/C,"dose: 25.0 mg/kg/injection, schedule: Q01DX009 (ip), vehicle: saline",126 % of control
CN(C)CCN(C)CC(C)(C)C(=O)/C=C/c1ccccc1,survivor count,"dose: 240.0 mg/kg/injection, schedule: Q01DX005 (ip), vehicle: saline",0 of 6
COc1nc(OC)c2cnn(-c3ccc(Cl)cc3)c2n1,survivor count,"dose: 60.0 mg/kg/injection, schedule: Q01DX005 (ip), vehicle: Klucel (hydroxypropylcellulose) (HPC)",6 of 6
same,survivor count,"dose: 120.0 mg/kg/injection, schedule: Q01DX005 (ip), vehicle: Klucel (hydroxypropylcellulose) (HPC)",6 of 6
